This is one part of the list.
Columns and labels:
Test in all cases: log2 fold change, soluble protein after heating vs DMSO (PISA); higher = thermal stabilisation; K562 lysate, 10 uM; active = over 0.2 and 3.5 SD of the protein, either way, in both replicates (recomputed)
ibrutinib = compound: C=CC(=O)N1CCC[C@@H](n2nc(-c3ccc(Oc4ccccc4)cc3)c3c(N)ncnc32)C1 [ibrutinib]
Method in brief: (§1)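 The values are log-two fold changes in thermal stability compared with solvent controls and come from duplicates. They were obtained by TMTpro 16plex LC-MS/MS, with channel sums equalised, on the supernatant after 21,000xg for 90 min. That supernatant came from crude K562 extract at 1 mg/mL protein treated with 10 μM compound for 30 min, heated for 3 min across 48°C-58°C, pooled and brought to 0.5% NP-40 at 4°C.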

Chains of the proteins cited; added tags and fusions are not shown. Lines headed by an entry give the natural chain unless they say otherwise; changes in a name come on top.
UniProt O60869: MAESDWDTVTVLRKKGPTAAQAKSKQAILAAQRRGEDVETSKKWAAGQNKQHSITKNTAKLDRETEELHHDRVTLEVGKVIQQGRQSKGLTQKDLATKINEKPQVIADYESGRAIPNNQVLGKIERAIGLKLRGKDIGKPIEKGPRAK
UniProt Q14919: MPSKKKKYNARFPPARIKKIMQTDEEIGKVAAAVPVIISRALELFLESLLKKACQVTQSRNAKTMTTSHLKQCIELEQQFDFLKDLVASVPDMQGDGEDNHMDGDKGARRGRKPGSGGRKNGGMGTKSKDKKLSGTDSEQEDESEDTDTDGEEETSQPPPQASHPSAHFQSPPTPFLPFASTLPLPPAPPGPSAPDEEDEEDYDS
UniProt Q96FJ2, whole entry, looked up: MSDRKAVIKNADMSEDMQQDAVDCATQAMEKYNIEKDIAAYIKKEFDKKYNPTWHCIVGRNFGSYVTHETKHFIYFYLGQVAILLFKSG
UniProt Q08426: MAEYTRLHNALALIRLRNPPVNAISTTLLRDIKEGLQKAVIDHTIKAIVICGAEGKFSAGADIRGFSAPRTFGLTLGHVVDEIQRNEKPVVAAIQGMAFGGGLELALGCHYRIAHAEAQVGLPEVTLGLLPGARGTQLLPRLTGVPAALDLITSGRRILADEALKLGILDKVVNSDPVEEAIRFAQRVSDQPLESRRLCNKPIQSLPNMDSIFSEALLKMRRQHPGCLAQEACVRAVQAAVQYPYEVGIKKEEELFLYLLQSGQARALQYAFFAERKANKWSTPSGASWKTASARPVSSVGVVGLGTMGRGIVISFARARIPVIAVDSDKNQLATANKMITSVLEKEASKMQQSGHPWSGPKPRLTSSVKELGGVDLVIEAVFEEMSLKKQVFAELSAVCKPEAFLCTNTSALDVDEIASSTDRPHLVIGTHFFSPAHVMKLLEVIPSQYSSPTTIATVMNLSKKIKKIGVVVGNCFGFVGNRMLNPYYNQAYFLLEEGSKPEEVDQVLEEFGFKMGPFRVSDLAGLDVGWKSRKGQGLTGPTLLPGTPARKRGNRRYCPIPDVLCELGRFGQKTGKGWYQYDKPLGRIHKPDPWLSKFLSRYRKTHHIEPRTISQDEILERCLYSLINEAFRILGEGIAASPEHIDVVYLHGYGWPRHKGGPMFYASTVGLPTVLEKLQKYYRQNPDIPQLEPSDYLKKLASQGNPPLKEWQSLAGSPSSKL
UniProt P24534: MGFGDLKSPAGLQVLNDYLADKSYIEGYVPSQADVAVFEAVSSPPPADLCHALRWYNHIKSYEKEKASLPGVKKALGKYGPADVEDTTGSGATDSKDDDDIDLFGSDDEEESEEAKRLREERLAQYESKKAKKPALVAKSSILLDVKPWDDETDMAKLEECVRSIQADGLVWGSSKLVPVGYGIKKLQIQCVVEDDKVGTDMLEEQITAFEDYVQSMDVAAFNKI
UniProt Q9H223: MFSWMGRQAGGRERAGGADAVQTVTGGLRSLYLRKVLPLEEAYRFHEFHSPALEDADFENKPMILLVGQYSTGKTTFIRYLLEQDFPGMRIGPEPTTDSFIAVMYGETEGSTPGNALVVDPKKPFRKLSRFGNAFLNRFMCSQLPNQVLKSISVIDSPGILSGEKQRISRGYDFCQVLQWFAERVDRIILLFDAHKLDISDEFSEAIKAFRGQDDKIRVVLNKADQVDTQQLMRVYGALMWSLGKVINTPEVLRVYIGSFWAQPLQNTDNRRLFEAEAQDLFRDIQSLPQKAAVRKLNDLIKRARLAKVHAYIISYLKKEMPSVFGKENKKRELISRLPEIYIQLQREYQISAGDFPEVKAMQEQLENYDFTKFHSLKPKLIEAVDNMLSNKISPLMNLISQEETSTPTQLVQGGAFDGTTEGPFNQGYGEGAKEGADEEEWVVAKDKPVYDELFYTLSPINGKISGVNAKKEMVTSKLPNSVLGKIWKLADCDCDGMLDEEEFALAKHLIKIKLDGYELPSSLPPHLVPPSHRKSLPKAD
UniProt Q05639, whole entry, looked up: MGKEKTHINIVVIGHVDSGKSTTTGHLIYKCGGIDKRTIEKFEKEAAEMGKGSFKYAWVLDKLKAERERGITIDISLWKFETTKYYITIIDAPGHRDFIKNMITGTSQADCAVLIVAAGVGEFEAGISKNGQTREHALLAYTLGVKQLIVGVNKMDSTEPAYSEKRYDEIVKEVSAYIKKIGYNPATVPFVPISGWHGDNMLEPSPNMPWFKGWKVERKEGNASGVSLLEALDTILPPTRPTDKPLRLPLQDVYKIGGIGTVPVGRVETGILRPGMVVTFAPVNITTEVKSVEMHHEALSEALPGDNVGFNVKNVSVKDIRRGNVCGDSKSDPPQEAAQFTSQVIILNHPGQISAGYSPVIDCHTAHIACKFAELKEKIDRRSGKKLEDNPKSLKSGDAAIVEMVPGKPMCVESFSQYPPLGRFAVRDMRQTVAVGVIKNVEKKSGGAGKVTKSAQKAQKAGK
UniProt P98172: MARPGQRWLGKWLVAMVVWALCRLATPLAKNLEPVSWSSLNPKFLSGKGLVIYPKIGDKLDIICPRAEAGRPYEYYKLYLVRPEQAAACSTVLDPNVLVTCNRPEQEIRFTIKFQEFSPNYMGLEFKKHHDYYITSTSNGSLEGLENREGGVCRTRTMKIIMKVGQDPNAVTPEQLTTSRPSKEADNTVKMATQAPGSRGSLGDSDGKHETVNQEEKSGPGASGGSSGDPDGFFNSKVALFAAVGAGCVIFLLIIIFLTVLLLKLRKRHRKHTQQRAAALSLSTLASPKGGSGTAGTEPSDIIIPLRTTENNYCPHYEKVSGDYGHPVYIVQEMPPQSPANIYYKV
UniProt Q96G46: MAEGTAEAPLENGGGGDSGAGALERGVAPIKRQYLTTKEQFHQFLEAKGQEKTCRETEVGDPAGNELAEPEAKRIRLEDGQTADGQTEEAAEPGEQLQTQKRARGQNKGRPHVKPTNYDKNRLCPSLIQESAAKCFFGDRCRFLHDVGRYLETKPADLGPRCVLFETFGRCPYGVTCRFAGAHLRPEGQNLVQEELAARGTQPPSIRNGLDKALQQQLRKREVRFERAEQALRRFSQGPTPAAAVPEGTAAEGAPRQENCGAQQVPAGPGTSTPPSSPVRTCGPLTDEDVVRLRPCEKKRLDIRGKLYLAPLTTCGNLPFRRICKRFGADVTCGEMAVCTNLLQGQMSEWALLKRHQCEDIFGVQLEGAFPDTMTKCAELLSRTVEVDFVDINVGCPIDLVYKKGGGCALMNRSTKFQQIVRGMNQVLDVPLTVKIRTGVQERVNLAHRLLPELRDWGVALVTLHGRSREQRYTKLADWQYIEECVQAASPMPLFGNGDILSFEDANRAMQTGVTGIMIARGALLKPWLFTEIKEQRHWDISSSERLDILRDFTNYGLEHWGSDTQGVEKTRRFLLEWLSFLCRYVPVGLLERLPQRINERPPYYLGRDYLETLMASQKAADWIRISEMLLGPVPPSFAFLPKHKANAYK
UniProt Q9H2P9: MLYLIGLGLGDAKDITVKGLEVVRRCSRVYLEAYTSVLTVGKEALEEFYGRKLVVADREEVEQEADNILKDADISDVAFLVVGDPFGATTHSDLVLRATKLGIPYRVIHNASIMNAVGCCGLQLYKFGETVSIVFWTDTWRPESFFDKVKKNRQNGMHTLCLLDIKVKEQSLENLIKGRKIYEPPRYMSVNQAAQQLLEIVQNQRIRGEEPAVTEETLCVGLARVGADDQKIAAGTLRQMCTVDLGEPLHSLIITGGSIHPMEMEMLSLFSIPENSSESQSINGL
UniProt O00418: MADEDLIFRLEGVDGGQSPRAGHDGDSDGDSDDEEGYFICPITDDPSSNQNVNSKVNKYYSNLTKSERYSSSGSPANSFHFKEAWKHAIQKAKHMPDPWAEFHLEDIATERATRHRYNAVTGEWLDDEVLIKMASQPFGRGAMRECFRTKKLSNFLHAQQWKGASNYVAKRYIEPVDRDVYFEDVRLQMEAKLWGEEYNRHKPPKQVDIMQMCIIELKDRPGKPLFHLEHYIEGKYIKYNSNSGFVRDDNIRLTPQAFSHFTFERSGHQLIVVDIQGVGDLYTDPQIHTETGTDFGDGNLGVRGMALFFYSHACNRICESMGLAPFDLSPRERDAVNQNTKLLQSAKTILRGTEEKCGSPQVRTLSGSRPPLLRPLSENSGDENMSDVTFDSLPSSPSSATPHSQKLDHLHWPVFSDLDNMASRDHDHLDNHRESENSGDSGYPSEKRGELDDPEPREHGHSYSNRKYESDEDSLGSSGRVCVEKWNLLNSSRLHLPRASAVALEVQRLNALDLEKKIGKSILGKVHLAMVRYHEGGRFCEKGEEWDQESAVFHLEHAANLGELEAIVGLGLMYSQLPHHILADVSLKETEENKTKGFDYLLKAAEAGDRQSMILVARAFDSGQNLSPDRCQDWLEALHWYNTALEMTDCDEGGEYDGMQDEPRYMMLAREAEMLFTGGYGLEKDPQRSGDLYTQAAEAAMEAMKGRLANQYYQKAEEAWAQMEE
UniProt Q15125: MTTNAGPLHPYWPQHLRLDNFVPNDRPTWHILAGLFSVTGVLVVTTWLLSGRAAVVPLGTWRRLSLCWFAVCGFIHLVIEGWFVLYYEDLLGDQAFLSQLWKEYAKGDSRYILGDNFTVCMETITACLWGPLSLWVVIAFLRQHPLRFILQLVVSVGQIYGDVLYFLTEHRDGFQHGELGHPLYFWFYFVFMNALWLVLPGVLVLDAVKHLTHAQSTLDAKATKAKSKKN
UniProt Q16254: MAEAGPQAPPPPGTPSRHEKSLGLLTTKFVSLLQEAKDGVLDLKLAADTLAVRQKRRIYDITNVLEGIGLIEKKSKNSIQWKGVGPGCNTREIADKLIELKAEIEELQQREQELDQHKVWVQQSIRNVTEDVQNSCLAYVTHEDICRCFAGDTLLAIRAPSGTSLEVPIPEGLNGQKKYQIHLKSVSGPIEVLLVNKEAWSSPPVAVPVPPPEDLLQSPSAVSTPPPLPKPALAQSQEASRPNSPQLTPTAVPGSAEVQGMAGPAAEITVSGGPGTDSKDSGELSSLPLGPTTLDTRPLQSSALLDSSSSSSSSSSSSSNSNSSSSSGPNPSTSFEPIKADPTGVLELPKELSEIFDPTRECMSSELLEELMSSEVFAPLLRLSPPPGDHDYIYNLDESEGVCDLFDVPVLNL
UniProt Q56P03: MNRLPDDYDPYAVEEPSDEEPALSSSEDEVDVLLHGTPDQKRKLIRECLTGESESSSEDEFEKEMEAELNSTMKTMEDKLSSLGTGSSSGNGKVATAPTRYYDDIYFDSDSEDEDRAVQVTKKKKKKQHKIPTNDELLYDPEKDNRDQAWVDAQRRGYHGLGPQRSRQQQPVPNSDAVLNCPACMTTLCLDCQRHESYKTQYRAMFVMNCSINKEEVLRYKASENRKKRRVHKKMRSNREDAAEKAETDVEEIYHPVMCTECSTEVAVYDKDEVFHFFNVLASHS
UniProt Q9BQC3: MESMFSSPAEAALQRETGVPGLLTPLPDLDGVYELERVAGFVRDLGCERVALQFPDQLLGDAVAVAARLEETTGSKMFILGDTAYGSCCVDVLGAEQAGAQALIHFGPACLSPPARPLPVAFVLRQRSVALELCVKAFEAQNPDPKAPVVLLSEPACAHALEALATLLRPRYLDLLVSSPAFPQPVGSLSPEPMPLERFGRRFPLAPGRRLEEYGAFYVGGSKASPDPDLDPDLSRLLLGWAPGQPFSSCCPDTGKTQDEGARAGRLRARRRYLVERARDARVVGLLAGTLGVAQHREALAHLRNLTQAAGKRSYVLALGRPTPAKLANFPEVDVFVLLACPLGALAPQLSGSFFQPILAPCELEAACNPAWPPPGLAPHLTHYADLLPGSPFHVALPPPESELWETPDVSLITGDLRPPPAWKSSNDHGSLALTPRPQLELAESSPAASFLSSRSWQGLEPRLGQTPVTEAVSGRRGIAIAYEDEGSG
UniProt Q9NTX5: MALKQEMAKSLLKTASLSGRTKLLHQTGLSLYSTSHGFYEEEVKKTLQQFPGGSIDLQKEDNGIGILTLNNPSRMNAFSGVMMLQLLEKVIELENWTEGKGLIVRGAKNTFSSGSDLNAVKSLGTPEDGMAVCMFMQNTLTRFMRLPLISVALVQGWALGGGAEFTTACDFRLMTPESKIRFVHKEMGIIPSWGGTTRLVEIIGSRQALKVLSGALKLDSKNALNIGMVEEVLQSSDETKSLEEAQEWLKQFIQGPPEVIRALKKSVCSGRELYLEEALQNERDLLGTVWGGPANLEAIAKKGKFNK
UniProt Q8N9N8: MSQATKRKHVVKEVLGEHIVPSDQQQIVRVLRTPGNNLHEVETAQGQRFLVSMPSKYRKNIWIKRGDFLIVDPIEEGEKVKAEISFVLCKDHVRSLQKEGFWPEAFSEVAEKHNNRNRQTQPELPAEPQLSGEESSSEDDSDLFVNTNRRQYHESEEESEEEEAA
UniProt P0DPD7: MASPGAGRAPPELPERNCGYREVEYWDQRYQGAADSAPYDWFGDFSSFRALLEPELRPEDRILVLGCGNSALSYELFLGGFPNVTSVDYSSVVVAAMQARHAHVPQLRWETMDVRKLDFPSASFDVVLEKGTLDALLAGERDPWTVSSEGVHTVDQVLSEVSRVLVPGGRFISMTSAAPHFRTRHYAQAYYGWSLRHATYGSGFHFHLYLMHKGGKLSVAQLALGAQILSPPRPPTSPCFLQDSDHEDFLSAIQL

[1] = compound: CC(=O)c1cnc2ccc(-c3cc(Cl)c(O)c(Cl)c3)nc2c1N[C@H]1CC[C@H](CN(C)C)CC1
Method in brief: as §1

ralimetinib = compound: CC(C)(C)Cn1c(N)nc2ccc(-c3[nH]c(C(C)(C)C)nc3-c3ccc(F)cc3)nc21 [ralimetinib]
Method in brief: as §1

[2] = compound: CC(C)(O)CC(=O)NCCn1ccc2ncnc(Nc3ccc(Oc4cccc(C(F)(F)F)c4)c(Cl)c3)c21
Method in brief: as §1

[3] = compound: CC(C)C1=C2N=C(C=C(N2N=C1)NCC3=CC=CC=C3)NCCCCCCN
Method in brief: as §1

[4] = compound: CC1=C(C(CC(=O)N1)C2=CC=C(C=C2)C(F)(F)F)C(=O)NC3=C(C=C4C(=C3)C=NN4)F
Method in brief: as §1

[5] = compound: CC1=C(C2=C(C=C1)C(=O)C3=CC=CC=C3N2CCCN)C
Method in brief: as §1

[6] = compound: CC1=C(C=C(C=C1)NC(=O)C2=CC(=CC=C2)C(C)(C)C#N)NC3=CC4=C(C=C3)N=CN(C4=O)C
Method in brief: as §1

[7] = compound: CC1=C(C=C(C=C1)NC(=O)C2=CC(=CC=C2)N(C)C)NC(=O)C3=CC=C(C=C3)O
Method in brief: as §1

[8] = compound: CC1=CC=C(C=C1)SC2=C3C=C(SC3=CN=C2)C(=O)N
Method in brief: as §1

Measured: log2 fold change

EEF1A1P5 (UniProt Q5VTE0)
inactive: ibrutinib -0.01 | [1] -0.007 | ralimetinib 0.001 | [2] -0.014 | [3] 0.032 | [4] 0.008 | [5] 0.019 | [6] -0.006 | [7] 0.012 | [8] -0.011

EDF1 (UniProt O60869)
inactive: ibrutinib 0.008 | [1] -0.005 | ralimetinib -0.06 | [2] -0.031 | [3] 0.051 | [4] -0.021 | [5] -0.103 | [6] -0.014 | [7] -0.076 | [8] -0.009

DRAP1 isoform 2 (UniProt Q14919)
inactive: ibrutinib -0.021 | [1] -0.002 | ralimetinib 0.025 | [2] 0.015 | [3] 0 | [4] 0.013 | [5] 0.025 | [6] -0.001 | [7] -0.002 | [8] 0.014

DPY19L1, A0A1B0GW05
inactive: ibrutinib -0.013 | [1] -0.005 | ralimetinib -0.035 | [2] 0 | [3] -0.001 | [4] 0.044 | [5] 0.02 | [6] 0.008 | [7] 0.065 | [8] 0.022

Two entries drawn at random from the list so far:
DRAP1 isoform 2 (UniProt Q14919)
inactive: ibrutinib -0.021 | [1] -0.002 | ralimetinib 0.025 | [2] 0.015 | [3] 0 | [4] 0.013 | [5] 0.025 | [6] -0.001 | [7] -0.002 | [8] 0.014

EDF1 (UniProt O60869)
inactive: ibrutinib 0.008 | [1] -0.005 | ralimetinib -0.06 | [2] -0.031 | [3] 0.051 | [4] -0.021 | [5] -0.103 | [6] -0.014 | [7] -0.076 | [8] -0.009

Continued:

DYNLL2 (UniProt Q96FJ2)
inactive: ibrutinib -0.037 | [1] 0.006 | ralimetinib -0.016 | [2] -0.031 | [3] 0.117 | [4] -0.081 | [5] 0.007 | [6] 0.043 | [7] -0.031 | [8] 0.008

DPP9 isoform 2 (UniProt Q86TI2)
inactive: ibrutinib 0.021 | [1] 0.005 | ralimetinib 0.009 | [2] 0.016 | [3] 0.002 | [4] 0.005 | [5] -0.004 | [6] -0.045 | [7] 0 | [8] 0.025

EHHADH (UniProt Q08426)
inactive: ibrutinib 0.059 | [1] -0.023 | ralimetinib 0.021 | [2] -0.084 | [3] -0.016 | [4] -0.003 | [5] 0.128 | [6] -0.027 | [7] 0.031 | [8] 0.008

EEF1B2 (UniProt P24534)
inactive: ibrutinib -0.008 | [1] -0.001 | ralimetinib -0.032 | [2] 0.001 | [3] -0.007 | [4] -0.027 | [5] 0.02 | [6] -0.012 | [7] 0.01 | [8] -0.007

EHD4 (UniProt Q9H223)
inactive: ibrutinib -0.021 | [1] -0.006 | ralimetinib 0.036 | [2] 0.02 | [3] -0.03 | [4] 0.002 | [5] 0.017 | [6] -0.029 | [7] 0.008 | [8] 0.009

EEF1A2 (UniProt Q05639)
inactive: ibrutinib 0.015 | [1] -0.004 | ralimetinib 0.012 | [2] 0.017 | [3] 0.052 | [4] -0.059 | [5] 0.036 | [6] -0.014 | [7] 0.018 | [8] 0

EFNB1 (UniProt P98172)
inactive: ibrutinib 0.108 | [1] -0.008 | ralimetinib 0.001 | [2] -0.007 | [3] 0.055 | [4] -0.095 | [5] 0.061 | [6] 0.006 | [7] 0 | [8] -0.03

DUS3L (UniProt Q96G46)
inactive: ibrutinib 0.012 | [1] -0.003 | ralimetinib 0.023 | [2] -0.034 | [3] -0.007 | [4] 0.004 | [5] -0.007 | [6] 0.014 | [7] 0.001 | [8] -0.003

ECH1 (UniProt Q13011)
inactive: ibrutinib -0.035 | [1] -0.02 | ralimetinib 0.064 | [2] -0.036 | [3] -0.033 | [4] 0.04 | [5] -0.02 | [6] -0.017 | [7] -0.018 | [8] 0.013

DPF2 (UniProt Q92785)
inactive: ibrutinib 0.005 | [1] -0.064 | ralimetinib 0.002 | [2] -0.01 | [3] -0.02 | [4] -0.013 | [5] -0.042 | [6] 0.072 | [7] -0.011 | [8] -0.034

DUS1L (UniProt Q6P1R4)
inactive: ibrutinib 0.03 | [1] 0.027 | ralimetinib 0.001 | [2] 0.001 | [3] 0.101 | [4] 0.02 | [5] 0.028 | [6] -0.005 | [7] 0.081 | [8] -0.057

DPH5 isoform 5 (UniProt Q9H2P9)
inactive: ibrutinib 0.043 | [1] -0.027 | ralimetinib -0.031 | [2] 0 | [3] 0.298 | [4] -0.034 | [5] -0.111 | [6] -0.007 | [7] -0.037 | [8] 0.04

EEF2K (UniProt O00418)
inactive: ibrutinib -0.028 | [1] 0.039 | ralimetinib -0.008 | [2] 0.023 | [3] 0.061 | [4] 0.026 | [5] -0.008 | [6] 0.009 | [7] 0.029 | [8] 0.043

EHBP1L1 (UniProt Q8N3D4)
inactive: ibrutinib 0.015 | [1] 0.041 | ralimetinib 0.026 | [2] -0.007 | [3] -0.031 | [4] -0.001 | [5] -0.02 | [6] 0.004 | [7] -0.03 | [8] -0.012

EBP (UniProt Q15125)
inactive: ibrutinib -0.023 | [1] 0.002 | ralimetinib 0.004 | [2] -0.022 | [3] 0.02 | [4] 0.01 | [5] -0.025 | [6] -0.016 | [7] -0.152 | [8] 0.005

E2F4 (UniProt Q16254)
inactive: ibrutinib 0.025 | [1] -0.035 | ralimetinib 0.01 | [2] 0.002 | [3] 0.018 | [4] 0.012 | [5] 0.005 | [6] 0.001 | [7] -0.025 | [8] -0.037

EAPP (UniProt Q56P03)
inactive: ibrutinib -0.105 | [1] 0.025 | ralimetinib -0.1 | [2] -0.059 | [3] -0.035 | [4] 0.037 | [5] -0.037 | [6] -0.015 | [7] 0.052 | [8] -0.042

DUSP3 (UniProt P51452)
inactive: ibrutinib -0.041 | [1] -0.027 | ralimetinib -0.022 | [2] -0.021 | [3] -0.002 | [4] -0.024 | [5] -0.025 | [6] 0.025 | [7] -0.021 | [8] -0.009

DPP3 (UniProt Q9NY33)
inactive: ibrutinib -0.006 | [1] 0.004 | ralimetinib -0.011 | [2] 0.008 | [3] -0.015 | [4] -0.027 | [5] 0.015 | [6] -0.028 | [7] -0.006 | [8] 0.017

DPH2 (UniProt Q9BQC3)
inactive: ibrutinib -0.014 | [1] -0.01 | ralimetinib 0 | [2] -0.026 | [3] 0 | [4] -0.004 | [5] -0.004 | [6] 0.066 | [7] -0.018 | [8] -0.033

ECHDC1 (UniProt Q9NTX5)
inactive: ibrutinib -0.042 | [1] 0.006 | ralimetinib 0.005 | [2] 0.014 | [3] -0.023 | [4] 0.007 | [5] 0.009 | [6] 0.026 | [7] -0.018 | [8] 0.005

EIF1AD (UniProt Q8N9N8)
inactive: ibrutinib 0.052 | [1] 0.022 | ralimetinib 0.023 | [2] -0.04 | [3] 0.017 | [4] -0.011 | [5] -0.017 | [6] 0.006 | [7] -0.004 | [8] 0.008

EEF1AKMT4 (UniProt P0DPD7)
inactive: ibrutinib 0.023 | [1] -0.012 | ralimetinib -0.003 | [2] -0.053 | [3] 0.003 | [4] -0.006 | [5] -0.055 | [6] -0.029 | [7] -0.029 | [8] 0.069

Source: the supplement of paper PMC10849652
